Reference: PubChem BioAssay AID2685 (National Center for Advancing Translational Sciences (NCATS), 2010)
Out of some 320,000 compounds screened, about 2,100 (0.66%) were called active. The shares of active, inactive and inconclusive entries below differ from those in the screen. Calls come from the whole dose curve; as a rule, active = well fitted inhibition curve with a large enough effect in the signal ratio, with a control signal flat (not every such curve was filed as active); inconclusive = small, poorly fitted or top-dose-only effect, or effect the other way, or a change in a side signal; inactive = flat fitted curve, though single readings scatter; the % refers to the signal ratio. Potencies of inconclusive entries are doubtful fits and often do not repeat.

Assay: qHTS Assay for Lipid Storage Modulators in Drosophila S3 Cells
Conditions: BODIPY lipid droplet fluorescence, 18-24 h, cells fed with added oleic acid; lipid storage change, negative = inhibition: at 46.1 µM (top of the series) unless noted
Outline: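 Drosophila S3 cells got compounds at several concentrations plus oleic acid (400 uM solution). Laser-scanning cytometry with 488 nm excitation read lipid droplets at 500-530 nm and cells at 575-640 nm. Percent activity was relative to 20 uM Triacsin C.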
% is set by controls: 0 for no effect and ±100 for the full control effect; potency is the fitted concentration of half-maximal effect.

SMILES | lipid storage change, negative = inhibition | Potency
Cc1cccnc1NC(=O)C1CCCN(S(=O)(=O)c2ccc3c(c2)oc(=O)n3C)C1 (stereo not given) | inconclusive: 6.38% | –
COC(CNS(=O)(=O)c1ccc(Cl)cc1)c1ccccc1 (stereo not given) | inconclusive: -28.2% | –
CN(C)S(=O)(=O)c1ccc(C(=O)Nc2ccc(F)cc2F)cc1 | inconclusive: 31.6% | –
O=C1O[C@@H](c2ccc(O)cc2)Cc2cccc(O)c21 | – | inconclusive: 6.51 µM [activator, single point]
N=c1oc2ccccc2cc1C(=O)Nc1cccc(F)c1 | – | inconclusive: 0.103 µM [activator, full curve, poor fit]
O=C(O)CCCc1c(-[n+]2ccccc2)[nH]c2ccccc12 | inconclusive: 12.8% | –
CC(=O)Nc1cc(NC(C)=O)c(N=Nc2ccccc2)cc1C | inconclusive: 22.7% | –
Cc1ccc(-n2cc(C(C)(C)C)[nH]c2=S)cc1 | inconclusive: -26.4% | –
O=C(N/N=C/c1c[nH]c2ccccc12)C1CC1(c1ccccc1)c1ccccc1 (stereo not given) | – | inconclusive: 18.4 µM [cytotoxic, single point]
COc1cccc(/C=N/n2c(N)nc3ccccc32)c1OC | inconclusive: 140% | –
O=C(Cc1ccc(Cl)c(Cl)c1)OCC(=O)c1ccc[nH]1 | – | inconclusive: 0.0046 µM [activator, full curve, poor fit]
O=C(NC(Cc1ccccc1)C(=O)O)/C(=C\c1ccccc1)NC(=O)c1ccco1 (stereo not given) | inactive | –
CC(CCc1ccccc1)NC(=O)C1CCN(S(=O)(=O)N2CCCCC2)CC1 (stereo not given) | – | inconclusive: 0.146 µM [activator, full curve, poor fit]
C=CCOC(=O)C1=C(C)NC(=O)NC1c1cc2c(cc1Br)OCO2 (stereo not given) | inactive | –
CN(C)CC(C)(C)CNC(=S)NCc1ccc2c(c1)OCO2 | – | inconclusive: 1.64 µM [activator, partial curve]
COCCNC(=O)c1ccc2c(c1)ncn2-c1cccc(C)c1 | inconclusive: 13.4% | –
CC(C)c1ccccc1NC(=O)COc1ccc(C(=O)NCCc2ccccc2)cc1 | – | inconclusive: 16.4 µM [cytotoxic, single point]
O=C(O)CCCN1C(=O)/C(=C\c2ccc(-c3nc4ccccc4s3)o2)SC1=S | inconclusive: -40.3% | –
Cc1ccc(-c2csc(N3N=C(c4ccccc4)/C(=C\c4ccc(N(C)C)cc4)C3=O)n2)cc1 | inconclusive: -22.6% | –
CCC1(c2ccccc2)NC(=O)N(CC(=O)Nc2cc(Cl)ccc2N2CCOCC2)C1=O (stereo not given) | inconclusive: 33.2% | –
OC[C@H]1O[C@H](OC[C@H]2O[C@H](OC[C@H]3O[C@H](O[C@]4(CO)O[C@H](CO)[C@@H](O)[C@@H]4O)[C@H](O)[C@@H](O)[C@@H]3O)[C@H](O)[C@@H](O)[C@H]2O)[C@H](O)[C@@H](O)[C@H]1O | inconclusive: -31.6% | –
COc1ccc(Cc2nnc(NC(=O)c3cccs3)s2)cc1OC | – | inconclusive: 4.61 µM [falling, single point]
Cc1cc(-n2c(C)cc(C(=O)CN3C(=O)NC4(CCCCCC4)C3=O)c2C)no1 | inconclusive: -3.62% | –
Nc1cc(OC(=O)c2c(F)cccc2Cl)nn1S(=O)(=O)c1ccccc1 | – | active: 0.517 µM
N=c1c(C(=O)NCc2ccc3c(c2)OCO3)cc2c(=O)n3ccccc3nc2n1CC1CCCO1 (stereo not given) | inconclusive: 111% | –

SMILES | lipid storage change, negative = inhibition | Potency
O=C(N/N=C\c1cccc(Cl)c1)c1ccc(Cn2cccn2)o1 | inconclusive: 14.7% | –
CCN(CC)CCNC(=O)c1cn(CCOC)c(=O)c2c1c1ccccc1n2C | inconclusive: 16.1% | –
N=c1c(S(=O)(=O)c2ccccc2)cc2c(=O)n3ccccc3nc2n1C1CCCC1 | – | inconclusive: 29.1 µM [rising, single point]
CC(C)(C)NC(=O)c1ccccc1NC(=O)C1CC(=O)N(C2CCCCC2)C1 (stereo not given) | inconclusive: -2.06% | –
Cc1cc(C)n2c(SCC(C)C)nnc2n1 | inactive | –
COc1ccc(N2CCN(C(=O)NCc3ccc(OC)c(Cl)c3)CC2)cc1 | inconclusive: 1.48% | –
Cc1cccc(COCC(Cc2ccccc2)N2CCN(C(=O)c3ccc(Cl)c(Cl)c3)CCC2=O)c1 (stereo not given) | inconclusive: -4.43% | –
C[C@H](NS(=O)(=O)c1ccc(Cl)cc1)C(=O)OCC(=O)c1ccc[nH]1 | inconclusive: -19.8% | –
CCOC(=O)C1=C(C)NC(C)=C(C(=O)OC)C1c1cccc([N+](=O)[O-])c1 (stereo not given) | – | inconclusive: 14.6 µM [activator, single point]
CC(C)CCNC(=O)CN(CCCN1CCOCC1)C(=O)Cn1nnc(-c2ccc(F)cc2)n1 | – | inconclusive: 0.231 µM [rising, full curve, poor fit]
CCC1(c2ccc(F)cc2)NC(=O)N(CC(=O)N(C)C2CCS(=O)(=O)C2)C1=O (stereo not given) | inconclusive: -5.95% | –
Cc1nnc(SCCn2c(N3CCCCC3)nc3c2c(=O)[nH]c(=O)n3C)s1 | inconclusive: -8.09% | –
CC1(C)Cc2c(sc3nc(SCC(=O)N4CCOCC4)nc(N)c23)CO1 | inconclusive: -15.2% | –
CCN(CC)Cc1ccccn1 | inconclusive: 8.4% | –
Cc1nn(C(=O)Cn2ccc([N+](=O)[O-])n2)c(C)c1Br | inconclusive: -3.8% | –
c1ccc2c(c1)CCc1c-2nc2ccccc2c1N1CCOCC1 | inconclusive: 15.9% | –
Cc1cc(NC(=O)c2ccc([N+](=O)[O-])cc2)n(CCC#N)n1 | – | inconclusive: 18.4 µM [activator, partial curve, poor fit]
COc1ccc(/C=N/N2C(=O)c3ccccc3C2=O)cc1 | inconclusive: 7.35% | –
CC1CCc2sc(NC(=O)C3CC(Cl)=CCC3C(=O)O)c(C#N)c2C1 (stereo not given) | inconclusive: -9.29% | –
CN(C1CCCCC1)C(CNS(=O)(=O)c1ccc(Cl)cc1)c1ccccc1 (stereo not given) | inconclusive: -3.91% | –
COc1ccc(N(C(=O)CCl)C(C(=O)NC2CCCCC2)c2cccnc2)cc1 (stereo not given) | – | inconclusive: 23.1 µM [falling, single point]
O=C1CCc2cc(S(=O)(=O)NC(C(=O)NCc3cccnc3)c3ccccc3)ccc2N1 (stereo not given) | – | inconclusive: 0.0046 µM [falling, full curve, poor fit]
CCNS(=O)(=O)c1ccc(CCC(=O)Nc2ccc3c(c2)OCCO3)cc1 | – | inconclusive: 20.6 µM [activator, partial curve, poor fit]
CSCC[C@@H](C(=O)NCc1cccs1)N1Cc2ccccc2C1=O | inconclusive: 68.7% | –
Cc1noc(C)c1CSc1nc2ccccc2n1C | inconclusive: 14.3% | –

Quoted from the listing.
Potency with CCNS(=O)(=O)c1ccc(CCC(=O)Nc2ccc3c(c2)OCCO3)cc1 reads inconclusive: 20.6 µM [activator, partial curve, poor fit]
lipid storage change, negative = inhibition with Cc1cc(C)n2c(SCC(C)C)nnc2n1 reads inactive
lipid storage change, negative = inhibition with Cc1nn(C(=O)Cn2ccc([N+](=O)[O-])n2)c(C)c1Br reads inconclusive: -3.8%

Continuation.

SMILES | lipid storage change, negative = inhibition | Potency
CC(=O)N1CCN(Cc2ccc(Br)s2)CC1 | inconclusive: -59.3% | –
CCN(CC(=O)Nc1ccc(OC)cc1)C(=O)CSCc1ccc(C)cc1 | inconclusive: 4.92% | –
CCN(CC)CCn1c(=N)n(CCO)c2ccccc21 | – | active: 3.26 µM
O=C(COC(=O)CNC(=O)c1ccccc1)NC1CCCC1 | – | inconclusive: 20.6 µM [activator, single point]
CC(C)(C)C(=O)NNC(=O)C1CC1(c1ccccc1)c1ccccc1 (stereo not given) | inconclusive: -19.9% | –
CCCOc1ccc(-c2nc3c(c(=O)[nH]c(=O)n3Cc3ccccc3)n2CCO)cc1OCC | – | inconclusive: 29.1 µM [falling, single point]
Cc1cc(=O)oc2cc(OCC(=O)NC3CCCCC3)ccc12 | inconclusive: -65.4% | –
Cc1ccccc1NC(=O)OCc1cccnc1Sc1ccc(Cl)cc1 | – | inconclusive: 0.0259 µM [falling, full curve, poor fit]
CCOc1ccc(NC(=O)CN(C)C(=O)CCCOc2ccc(Cl)c(C)c2)cc1OCC | – | inconclusive: 18.4 µM [falling, single point]
CCCCSc1nnc(-c2ccccc2NC(C)=O)c(=O)[nH]1 | inconclusive: -19.6% | –
O=C(CCC1=NS(=O)(=O)c2ccccc2N1)NC1CCCCCCC1 | inconclusive: 58.2% | –
O=C(CN1CCOCC1)Nc1ccc(OCc2ccccc2)cc1 | inconclusive: 11.3% | –
Cc1cc(C)c(S(=O)(=O)N2CCc3ccccc32)c(C)c1 | inconclusive: -79.4% | –
CC1CN(CCOc2ccccc2C(C)C)CC(C)O1 (stereo not given) | – | inconclusive: 2.31 µM [falling, single point]
CCc1ccc(Cn2nnc(C(=O)Nc3ccc(OC)cc3OC)c2N)cc1 | inconclusive: 1.8% | –
COc1cc(CNc2nc(C)c([N+](=O)[O-])c(C)c2C#N)cc(OC)c1OC | – | inconclusive: 0.082 µM [activator, full curve, poor fit]
NNC(=O)CC12CC3CC(C1)CC(n1ncnn1)(C3)C2 | inconclusive: 2.8% | –
Cc1cc(N2C(=O)C(O)=C(C(=O)c3ccco3)C2c2cccnc2)no1 (stereo not given) | inconclusive: -16% | –
C=CCOc1ccc(/C(O)=C2\C(=O)C(=O)N(CCCOC)C2c2ccc(O)c(OC)c2)cc1 (stereo not given) | – | inconclusive: 0.651 µM [rising, partial curve, poor fit]
Cc1ccc(NC(=O)CCc2nc3sc4c(c3c(=O)[nH]2)CCCC4)c(Br)c1 | inconclusive | –
COC(=O)C(C)N(C(=O)c1cccc2ccccc12)c1c(C)cccc1C (stereo not given) | inconclusive: -6.36% | –
Cc1ccc(S(=O)(=O)NCCC(=O)NCC(c2cccs2)N(C)C)cc1 (stereo not given) | – | inconclusive: 0.0052 µM [activator, full curve, poor fit]
CC(=O)Nc1ccc(NC(=O)CSc2nnc3c4ccccc4n(C)c3n2)cc1 | inconclusive: 31.7% | –
COc1ccc(NC(=O)COC(=O)CN2C(=O)c3ccccc3C2=O)cc1 | inconclusive: -5.77% | –
COc1ccc(CNC(=O)Cn2cc3c(n2)CCCCC3)cc1 | inconclusive: 36.3% | –
